SMILES strings stand for the structures. The list does not hold the whole screen: it gathers tests that were run many times, whatever their T/C, doses with no T/C, and many T/C values between a quarter and a half above the control. Further doses and runs are listed elsewhere. T/C: endpoint of the treated group in % of that of the vehicle group. Some doses have a count of surviving animals in place of a T/C: the source files T/C as zero there, which appears to mark a toxic dose or a test without result, not a measured value. Some survivor counts are full or nearly so, which does not show that the dose was tolerated: survival well below the control is almost never listed, so the zero probably covers shortened survival too. Counts of survivors are from the toxicity check (mostly the fifth day) where no day follows; animals may have died later. Schedules are NCI's codes, read here as Q, the interval in days (D) or hours (H), X, the number of doses. Some schedules carry Z or #; the key to these is not given. Some entries were tested several times; their values stand side by side, smallest first. Where survival is the endpoint, the PubChem record calls one and a half times the control and up active, and a quarter to a half above the control has no call in these data; cut-offs in other NCI protocols can differ.

The experiment relates to L1210 leukemia ip in BDF1 mice, survival T/C. Kind of experiment: NCI In Vivo Anticancer Drug Screen. Data for tumor model L1210 Leukemia (intraperitoneal) in B6D2F1 (BDF1) mice. As to conditions: T/C endpoint: mean survival time, higher T/C = longer survival.
Where [1] appears, read: dose: 12.5 mg/kg/injection, schedule: Q01DX009 (ip), vehicle: Klucel (hydroxypropylcellulose) (HPC).
Where [2] appears, read: dose: 400.0 mg/kg/injection, schedule: Q01DX009 (ip), vehicle: saline with Tween-80.

Turning to `CCCCCCCCCCNC(=O)C[n+]1cccc(C(=O)Nc2ccccc2)c1`, the survivor count was 4 of 6 (dose: 50.0 mg/kg/injection, schedule: Q04DX003 (ip), vehicle: saline); 0 of 6 (dose: 100.0 mg/kg/injection, schedule: Q04DX003 (ip), vehicle: acetone); 1 of 6 (dose: 200.0 mg/kg/injection, schedule: Q04DX003 (ip), vehicle: acetone); 0 of 6 (dose: 400.0 mg/kg/injection, schedule: Q04DX003 (ip), vehicle: acetone).
On to `CCCCCCCCCCCCCCCCCC(=O)[O][Hg][c]1ccccc1`, for which the survivor count reads like this: (dose: 40.0 mg/kg/injection, schedule: Q01DX009 (ip), vehicle: saline with Tween-80) 0 of 6; (dose: 64.0 mg/kg/injection, schedule: Q01DX015 (ip), vehicle: carboxymethylcellulose (CMC)) 1 of 6; (dose: 80.0 mg/kg/injection, schedule: Q01DX001 (ip), vehicle: carboxymethylcellulose (CMC)) 0 of 4; (dose: 80.0 mg/kg/injection, schedule: Q04DX003 (ip), vehicle: saline) 0 of 6.
Turning to `O=P1(NCCCl)OCCC(OO)N1CCCl` (configuration not stated), the T/C (dose: 25.0 mg/kg/injection, schedule: Q01DX001 (ip), vehicle: Klucel (hydroxypropylcellulose) (HPC)) was 148 % of control. Also, the survivor count reads like this: (dose: 100.0 mg/kg/injection, schedule: Q04DX002 (ip), vehicle: DMSO) 3 of 3; (dose: 200.0 mg/kg/injection, schedule: Q04DX002 (ip), vehicle: DMSO) 3 of 3; (dose: 400.0 mg/kg/injection, schedule: Q04DX002 (ip), vehicle: DMSO) 3 of 3; (dose: 800.0 mg/kg/injection, schedule: Q01DX001 (ip), vehicle: Klucel (hydroxypropylcellulose) (HPC)) 0 of 6.
With `O=C(Nc1ccccn1)c1ccccc1`, the survivor count is given as 2 of 3 (dose: 200.0 mg/kg/injection, schedule: Q04DX002 (ip), vehicle: saline with Tween-80) and 1 of 3 (dose: 400.0 mg/kg/injection, schedule: Q04DX002 (ip), vehicle: saline with Tween-80).
On to `CC1CN(C(C)C)C1`, for which the survivor count (dose: 400.0 mg/kg/injection, schedule: Q01DX001 (ip), vehicle: acetone) was 0 of 6.
Take `N#CC(C#N)=Cc1ccc([N+](=O)[O-])o1`: the survivor count by setting is: under setting [1], 3 of 6; (dose: 100.0 mg/kg/injection, schedule: Q04DX003 (ip), vehicle: Klucel (hydroxypropylcellulose) (HPC)) 0 of 6; (dose: 200.0 mg/kg/injection, schedule: Q04DX003 (ip), vehicle: Klucel (hydroxypropylcellulose) (HPC)) 1 of 6; (dose: 400.0 mg/kg/injection, schedule: Q04DX003 (ip), vehicle: Klucel (hydroxypropylcellulose) (HPC)) 0 of 6.
Consider `CN1CCC(CNC(=O)CCCCCCCCC(=O)NCC2(c3ccccc3)CCN(C)CC2)(c2ccccc2)CC1`, for which the survivor count by setting is: (dose: 10.0 mg/kg/injection, schedule: Q01DX Z (ip), vehicle: saline) 3 of 6; (dose: 10.0 mg/kg/injection, schedule: Q04DX003 (ip), vehicle: saline with Tween-80) 5 of 6; (dose: 20.0 mg/kg/injection, schedule: Q04DX003 (ip), vehicle: saline with Tween-80) 0 of 6; (dose: 30.0 mg/kg/injection, schedule: Q01DX Z (ip), vehicle: saline) 0 of 6; (dose: 100.0 mg/kg/injection, schedule: Q01DX Z (ip), vehicle: saline) 0 of 6; (dose: 300.0 mg/kg/injection, schedule: Q01DX Z (ip), vehicle: saline) 0 of 6.
For the compound `CN(N(P(N)(Cl)(c1ccccc1)c1ccccc1)P(N)(Cl)(c1ccccc1)c1ccccc1)P(N)(Cl)(c1ccccc1)c1ccccc1`, the survivor count (dose: 400.0 mg/kg/injection, schedule: Q01DX001 (ip), vehicle: steroid suspending solution) is recorded as 1 of 4.
As for `CCCCCC#CCCCCl`, the survivor count runs as follows: (dose: 200.0 mg/kg/injection, schedule: Q01DX009 (ip), vehicle: carboxymethylcellulose (CMC)) 3 of 3; (dose: 400.0 mg/kg/injection, schedule: Q04DX002 (ip), vehicle: carboxymethylcellulose (CMC)) 1 of 3 and 6 of 6.
As to `CC(=O)C(C(=O)NCc1ccccc1)C(c1cccc([N+](=O)[O-])c1)C(C(C)=O)C(=O)NCc1ccccc1` (configuration not stated), the survivor count (dose: 100.0 mg/kg/injection, schedule: Q04DX003 (ip), vehicle: saline with Tween-80) was 6 of 6.
As to `CN(C)N=Nc1n[nH]nc1C(N)=O`, the T/C is, setting by setting: (dose: 200.0 mg/kg/injection, schedule: Q01DX009 (ip), vehicle: saline) 147 % of control; (dose: 250.0 mg/kg/injection, schedule: Q01DX Z (ip), vehicle: carboxymethylcellulose (CMC)) 142 % of control; (dose: 269.0 mg/kg/injection, schedule: Q01DX009 (ip), vehicle: saline) 132 % of control; (dose: 538.0 mg/kg/injection, schedule: Q01DX009 (ip), vehicle: saline) 147 % of control.
As for `O=c1cccc2n1Cc1cc3ccccc3nc1-2`, under “dose: 150.0 mg/kg/injection, schedule: Q04DX003 (ip), vehicle: saline”, the survivor count was 3 of 5.
For `O=C(O)C(C(=O)O)C(=O)O`, where the note is “dose: 300.0 mg/kg/injection, schedule: Q01DX001 (ip), vehicle: saline”, the survivor count is reported as 1 of 6.
With `COC(=O)C(C(=O)OC)C(c1ccccc1)C(Br)(C(=O)OC)C(=O)OC` (configuration not stated), the survivor count under setting [2] is recorded as 5 of 6.
As to `CCOC(=O)c1ccc(C(=O)OCC)nc1`, the survivor count is 6 of 6 (dose: 200.0 mg/kg/injection, schedule: Q01DX009 (ip), vehicle: saline with Tween-80) and 6 of 6 under setting [2].
`C1CCC2CC(NC3=NCCO3)CCC2C1` (configuration not stated): the survivor count (dose: 1.56 mg/kg/injection, schedule: Q01DX009 (ip), vehicle: Klucel (hydroxypropylcellulose) (HPC)) is reported as 0 of 6; the survivor count (dose: 3.12 mg/kg/injection, schedule: Q01DX009 (ip), vehicle: Klucel (hydroxypropylcellulose) (HPC)) is 0 of 6; the survivor count (dose: 3.13 mg/kg/injection, schedule: Q01DX009 (ip), vehicle: Klucel (hydroxypropylcellulose) (HPC)) is 1 of 6; the survivor count (dose: 6.25 mg/kg/injection, schedule: Q01DX009 (ip), vehicle: Klucel (hydroxypropylcellulose) (HPC)) is 3 of 6; the survivor count under setting [1] was 0 of 6; the survivor count (dose: 25.0 mg/kg/injection, schedule: Q01DX009 (ip), vehicle: Klucel (hydroxypropylcellulose) (HPC)) was 1 of 6. Moreover, the survivor count by setting is: (dose: 50.0 mg/kg/injection, schedule: Q01DX009 (ip), vehicle: Klucel (hydroxypropylcellulose) (HPC)) 2 of 6; (dose: 100.0 mg/kg/injection, schedule: Q01DX009 (ip), vehicle: Klucel (hydroxypropylcellulose) (HPC)) 1 of 6.
For the compound `NC(=S)N/N=C(\c1ccc(Cl)cc1)C1CC1`, the survivor count runs as follows: (dose: 15.0 mg/kg/injection, schedule: Q01DX Z (ip), vehicle: carboxymethylcellulose (CMC)) 0 of 6; (dose: 30.0 mg/kg/injection, schedule: Q01DX Z (ip), vehicle: carboxymethylcellulose (CMC)) 0 of 6; (dose: 30.0 mg/kg/injection, schedule: Q01DX Z (sc), vehicle: carboxymethylcellulose (CMC)) 2 of 6; (dose: 60.0 mg/kg/injection, schedule: Q01DX Z (ip), vehicle: carboxymethylcellulose (CMC)) 0 of 6; (dose: 60.0 mg/kg/injection, schedule: Q01DX Z (sc), vehicle: carboxymethylcellulose (CMC)) 0 of 6; (dose: 120.0 mg/kg/injection, schedule: Q01DX Z (ip), vehicle: carboxymethylcellulose (CMC)) 0 of 6.
Turning to `CC1(C(Cl)(Cl)Cl)C=CC(=NO)C=C1` (configuration not stated), under “dose: 400.0 mg/kg/injection, schedule: Q04DX003 (ip), vehicle: saline with Tween-80”, the survivor count is reported as 2 of 6.
`CC1=CC(O)Nc2c(CBr)cccc21` (configuration not stated): the survivor count is on record as 0 of 6 (dose: 100.0 mg/kg/injection, schedule: Q01DX009 (ip), vehicle: saline with Tween-80); 6 of 6 (dose: 200.0 mg/kg/injection, schedule: Q04DX003 (ip), vehicle: saline); 0 of 6 (dose: 400.0 mg/kg/injection, schedule: Q04DX003 (ip), vehicle: saline).

The values above are taken from PubChem BioAssay AID248 (DTP/NCI, 2004).
